Where two headings read alike, the source gives them in different places. These are yes or no findings as the source states them, for the method shown. Binding seen in cells or lysates may run through a third protein. Some entries that bind do so weakly or less than the wild type.
Assays:
[1] = target: T1, Aubergine (Aub), endogenous (Drosophila melanogaster (endogenous in ovaries)) (UniProt O76922); experiment: co-IP
T1 sequence: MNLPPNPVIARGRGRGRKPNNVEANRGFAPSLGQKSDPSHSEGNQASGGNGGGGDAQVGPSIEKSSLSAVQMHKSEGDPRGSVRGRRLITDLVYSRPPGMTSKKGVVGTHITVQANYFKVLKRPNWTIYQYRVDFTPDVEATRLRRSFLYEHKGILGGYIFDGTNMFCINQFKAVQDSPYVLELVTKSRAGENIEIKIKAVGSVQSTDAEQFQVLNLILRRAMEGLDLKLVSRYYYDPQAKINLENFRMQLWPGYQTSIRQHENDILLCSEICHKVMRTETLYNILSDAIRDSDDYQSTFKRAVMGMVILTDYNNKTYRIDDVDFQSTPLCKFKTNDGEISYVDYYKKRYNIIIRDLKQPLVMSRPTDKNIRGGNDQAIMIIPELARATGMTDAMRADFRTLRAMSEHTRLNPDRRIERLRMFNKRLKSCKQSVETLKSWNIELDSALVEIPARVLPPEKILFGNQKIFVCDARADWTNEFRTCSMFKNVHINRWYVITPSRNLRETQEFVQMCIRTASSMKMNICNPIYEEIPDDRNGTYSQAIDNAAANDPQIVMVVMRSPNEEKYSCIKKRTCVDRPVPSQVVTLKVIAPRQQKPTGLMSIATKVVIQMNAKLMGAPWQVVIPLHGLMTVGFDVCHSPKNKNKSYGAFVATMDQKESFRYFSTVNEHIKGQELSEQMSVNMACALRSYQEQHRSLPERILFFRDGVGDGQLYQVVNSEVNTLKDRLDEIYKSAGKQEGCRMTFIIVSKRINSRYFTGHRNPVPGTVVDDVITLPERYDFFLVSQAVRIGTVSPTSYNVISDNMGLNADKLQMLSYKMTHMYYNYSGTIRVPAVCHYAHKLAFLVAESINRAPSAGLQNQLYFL

[2] = target: T1, Aubergine (Aub), endogenous (Drosophila melanogaster (endogenous in ovaries)); experiment: co-IP; remark: listed apart in the source

binding [1]: binds
binding [2]: binds weakly
B1: Spindle-E (Spn-E), endogenous (protein, UniProt Q9VF26 1-1434)
chain: MDQEVMDFFDFSKELKRVAAAPQGYISSDPRLMATKFKSSEVPNRELIGTDYVSKIVAKEKCLLNGTLLNEQPQGKRIRTLDDLDTDDEGEETEIRRDDEYYKKFRFNLNRDKNLSIYAKREEILAAINAHPVVIIKGETGCGKTTQVPQYILDEAYKSGKYCNIVVTQPRRIAAISIANRVCQEREWQQNTVCSFQVGLHRPNSLEDTRLLYCTTGVLLNNLINNKTLTHYTHIVLDEVHERDQNMDFLLIVVRRLLATNSRHVKIILMSATIDAKELSDYFTTTNSIPPVITTNHRRKHSIEKFYRDQLGSIIWNEEDVGHQQVPEINKHGYRAAVKIIVIIDNMERKAAIQSRQSYDEALRYGAVLIFLPGIYEIDTMAENLTCMLENDPNIKVSIVRCFSLMTPENQRDVFNPPPPGFRKIILTTNIAESSITVPDVSYVIDFCLAKVKVTDTASSFSSLRLTWASKANCRQRAGRVGRLRSGRVYRMVNKHFYQREMPEFGIPEMLRLPLQNSVLKAKVLNMGSPVEILALALSPPNLSDIHNTILLLKEVGALYLTVDGIYDPLDGDLTYWGTIMSRLPLDTRQSRLIILGYIFNMLEEAIIIAAGLSTPGLFAHEGGRSQLGDSFWMHYIFSDGSGSDLVAIWRVYLTYLNIVENGHDQESAIRWAKRFHVSLRSLKEIHLLVQELRVRCTHLGLIPFPVNPNQMMDDREKAIMLKVIIAGAFYPNYFTRSKESCADTDRNIYQTISGHDPCRTVYFTNFKPAYMGELYTRRIKELFQEVRIPPENMDVTFQEGSQKVFVTFKQDDWIEGSSKYVPVSGRVQSEVYKAVMMRQNRVERPIHIMNPSAFMSYVQQRGIGDVIEGRWIPPTKPLNVELLALPSVFDKTISGSITCIVNCGKFFFQPQSFEECIRNMSEIFNAPQQLRNYVTNASAIAKGMMVLAKRDSYFQRATVIRPENQSNRQPMFYVRFIDYGNCTLLPMQLMRLMPRELTEQYGDLPPRVFECRLAMVQPSSVVSGNNRWSTAANDMLKTVAQCGLIDIEVYSLFNNVAAVLIHMRDGIINDKLVELMLCRRSDEDYMSRKDHDFRLRRQESARNLSTAQRQQINEEYLRSCQLPQDHDLPPPPLEKCKTVVMLKGPNSPLECTMRSITRVGLSKRVNIDHLSVNALLLDADPQDHHDHLIVAHEIAESRNGQTLTARGTTLMPNVQGFGALMVMLFSPTMQLKCNKEGTSYVSVLGGLGCDPDTNEPYFAEHDVLINLDVNILEDDVILINQIRYYIDSVFFNFKEENNPAVSVNERVSIYTQLRSLINRLLCKDRRYIERNMSNADFEWETNPELPLPNEPFGKRAIFPMHSLTELQEEDTGRLVQLRENCSMLHKWRNFEGTLPHMTCKLCNQLLESVPQLRLHLLTILHRDREKQIDYCNQ
